# According to PubChem BioAssay AID540276 (National Center for Advancing Translational Sciences (NCATS), 2011):
# The campaign covered roughly 300,000 compounds. About 5,400 (1.8%) were called active. The shares of active, inactive and inconclusive entries below differ from those in the screen. The call rests on the fitted dose curve; tested in HEK293 cells. A potency beside an inconclusive call is a rough fit, not a confirmed value.
# Assay: qHTS for inhibitors of binding or entry into cells for Marburg Virus
# Details: Marburg virus pseudotyped entry inhibition, cell reporter; activity change, negative = inhibition: at 37.8 µM (top of the series) unless noted
# On the % scale 0 is the no-effect control and ±100 the full control effect; potency means the concentration at half of the fitted maximal effect.
SMILES,Potency,"activity change, negative = inhibition"
Cc1cc(C)nc(SCC(=O)N/N=C/c2cccs2)n1,"inconclusive: 0.891 µM [inhibitor, full curve, poor fit]",
CC12C=C(C=CC=Cc3ccco3)C(C)(C1)C(C=Cc1ccco1)CC2=O (stereo not drawn),"inconclusive: 0.0473 µM [activator, full curve, poor fit]",
COc1ccc(CCN(C)C(=O)COC(=O)/C=C/c2ccc(C)o2)cc1OC,,inactive: 6.19%
COc1ccc(-c2c(C#N)c(SCC(=O)c3cc4ccccc4oc3=O)nc(C)c2C(=O)Nc2ccccc2)cc1,"inconclusive: 11.2 µM [inhibitor, single point]",
COc1cc2c(cc1NC(=O)C(C)Sc1ccc(NC(C)=O)cc1)oc1ccccc12 (stereo not drawn),"inconclusive: 35.5 µM [inhibitor, single point]",
Cc1ccc(C)c(S(=O)(=O)NCC(=O)Nc2ccc3c(c2)OCO3)c1,,inactive: 2.94%
COc1ccc(Br)cc1/C=C/C(=O)Nc1c(C)cccc1C,"inconclusive: 32.6 µM [inhibitor, single point]",
COCCNC(=O)Cn1nc(C(F)(F)F)c(Cl)c1C,"inconclusive: 1 µM [inhibitor, full curve]",
COc1cccc(NC2=C(Cl)C(=O)OC2OC(=O)c2ccco2)c1 (stereo not drawn),"inconclusive: 35.5 µM [inhibitor, single point]",
CC(=O)c1cc(CCC(=O)NC2CCCCCC2)oc1C,"inconclusive: 35.5 µM [activator, single point]",
Cc1ccc(S(=O)(=O)Nc2cccc(C(=O)NCCCN3CCOCC3)c2)cc1F,"inconclusive: 2.51 µM [inhibitor, full curve, poor fit]",
O=C(CCc1ccccc1)Nc1ccc(Cl)cn1,"inconclusive: 3.98 µM [inhibitor, full curve]",
CC(=O)c1ccc(NC(=S)Nc2cccc3cnccc23)cc1,"inconclusive: 35.5 µM [inhibitor, single point]",
COCCN(C(=O)c1ccco1)c1nnc(-c2ccc(OC)cc2)s1,"inconclusive: 0.0052 µM [inhibitor, full curve, poor fit]",
C=CCn1c(SCC(=O)Nc2ccc(-c3nc4ccc(C)cc4s3)cc2)nnc1-c1ccccc1,"inconclusive: 10 µM [inhibitor, single point]",
COc1ccc(C(=O)Nc2ccc(NC(=O)c3ccccc3OC)nc2)cc1,"inconclusive: 5.62 µM [inhibitor, single point]",
CCC(=O)N(CCC(c1ccc(C)cc1)c1ccco1)Cc1ccco1 (stereo not drawn),"inconclusive: 0.562 µM [inhibitor, full curve, poor fit]",
O=C(Nc1ccnn1C1CCN(C/C=C/c2ccc(F)cc2)CC1)C1CCCC1,"inconclusive: 35.5 µM [inhibitor, single point]",
COc1ccc(Cn2c(O)c(C=Nc3ccc(OC)cc3)c3ccccc3c2=O)cc1,"inconclusive: 0.282 µM [inhibitor, full curve, poor fit]",
O=C(COC(=O)C1CCN(S(=O)(=O)c2cccs2)CC1)NCc1ccccc1,"inconclusive: 5.62 µM [inhibitor, single point]",
CCCOCc1ccc(O)c2ncccc12,"inconclusive: 35.5 µM [inhibitor, single point]",
CCCn1c(SCC(=O)c2ccc3c(c2)OCCO3)n[nH]c1=O,,inactive: 1.31% [at 46.1 µM]

SMILES,Potency,"activity change, negative = inhibition"
COc1ccccc1C(=O)NC(=O)COC(=O)c1cccc(OC(F)F)c1,,inactive: 3.21%
O=C(C=Cc1cccs1)c1ccc(Cl)s1,"inconclusive: 17.8 µM [inhibitor, partial curve, poor fit]",
O=C(O)c1cccc(S(=O)(=O)NCc2cccs2)c1,,inactive: 17.3%
CNC(=O)CC1C(=O)N(C)C(=S)N1NC(=O)c1ccccc1 (stereo not drawn),,inactive: 1.41%
Cc1cc(C(F)(F)F)cc(NNC(=O)NC(=O)c2c(F)cccc2Cl)n1,active: 7.08 µM,
OC(COCCOc1ccc(Br)cc1)CN1CCCCC1 (stereo not drawn),"inconclusive: 31.6 µM [inhibitor, single point]",
Cn1nccc1C(=O)OCC(=O)Nc1nc(-c2ccccc2)cs1,"inconclusive: 23.1 µM [activator, partial curve, poor fit]",
COc1ccc(C(C)=O)cc1CSc1nnc(SCc2cc(C(C)=O)ccc2OC)s1,"inconclusive: 0.891 µM [inhibitor, full curve, poor fit]",
CN(C)CCN(Cc1ccccc1)c1nccc(N(C)C)c1C#N,"inconclusive: 10.3 µM [inhibitor, partial curve, poor fit]",
COc1ccc(NC(=O)C2CCCC2)cc1S(=O)(=O)N1CCOCC1,"inconclusive: 3.55 µM [inhibitor, single point]",
Cc1ccc(NCc2nc(SCC(=O)Nc3ccccc3)n[nH]2)cc1,,inactive: 8.29%
O=C(CSc1nc2nc3c(cc2c(=O)n1-c1ccccc1)CCCC3)Nc1ccccc1,,inactive: -15.7%
CCCNc1nc2ccccc2c(=O)[nH]1,"inconclusive: 2.51 µM [inhibitor, single point]",
O=C1c2ccccc2C(=O)N1CCCc1c[nH]c2ccccc12,"inconclusive: 0.891 µM [activator, single point]",
Clc1ccc2nc(CSc3nnc4ccccn34)cn2c1,"inconclusive: 5.62 µM [inhibitor, partial curve, poor fit]",
CN1CCN(c2ccc(NC(=O)c3ccc([N+](=O)[O-])o3)cc2Cl)CC1,active: 11.2 µM,
O=C(CN1CCN(c2ccccc2)CC1)N/N=C/c1cccc(F)c1,"inconclusive: 1.41 µM [activator, partial curve, poor fit]",
COc1ccc(CCNC(=O)CCSc2nc(-c3ccco3)cc(C(F)(F)F)n2)cc1OC,"inconclusive: 35.5 µM [inhibitor, partial curve, poor fit]",
O=C(CCCCCNc1nc(=S)[nH]c2ccccc12)NCCc1ccccc1,,inactive: -24.1%
CC(C)C(c1nnnn1CC1CCCO1)N1CCN(Cc2ccc3c(c2)OCO3)CC1 (stereo not drawn),"inconclusive: 3.55 µM [activator, partial curve, poor fit]",
O=S(=O)(c1ccc(Br)s1)N1CCN(c2cccc(C(F)(F)F)c2)CC1,"inconclusive: 12.6 µM [inhibitor, partial curve, poor fit]",

# Some of these compounds in order of formula weight, ascending.
SMILES,Potency,"activity change, negative = inhibition"
CCCNc1nc2ccccc2c(=O)[nH]1,"inconclusive: 2.51 µM [inhibitor, single point]",
OC(COCCOc1ccc(Br)cc1)CN1CCCCC1 (stereo not drawn),"inconclusive: 31.6 µM [inhibitor, single point]",
COc1ccccc1C(=O)NC(=O)COC(=O)c1cccc(OC(F)F)c1,,inactive: 3.21%
